Source: paper PMC12040169 (PLOS Biology, 2025)
The list shows a part of the results.

Each compound was assayed on T1, CTL2-GFP (C. trachomatis L2/434/Bu, GFP-expressing). Conditions: bulk GFP, single well; 28.5 h, 10 µM; inhibitor.
T1 construct: L2/434/Bu, GFP-expressing
Parameters: species or system HeLa; Intracellular C. trachomatis growth in HeLa cells, bulk GFP fluorescence relative to DMSO

Q: With `COc1cc(-c2cncc(NCC(C)(C)CO)n2)cc(OC)c1OC` [CBK037854] as the compound, how does the “% of control remaining” value read?
A: 129.85%

Q: Which “% of control remaining” value does the source give for `CCOC(=O)c1ccccc1NC(=O)CCC(=O)O` [CBK261631] here?
A: 109.803%

Q: How did the “% of control remaining” value turn out when `COc1ccc(S(=O)(=O)N2CCN(C(C(=O)O)c3ccc(C)cc3)CC2)cc1` (stereo not shown) [CBK296753] was run?
A: 117.807%

Q: `FC(F)(F)c1cc(-c2cn3ccnc3c(NC3CCOCC3)n2)cc(C(F)(F)F)c1` [CBK037278] was tested. Which “% of control remaining” value did it give?
A: 101.218%

Q: `O=C(Cc1ccc(Cl)c(Cl)c1)N1CCN(C(=O)c2ccco2)CC1` [CBK144454] was tested. Which “% of control remaining” value did it give?
A: 70.6999%

Q: Which “% of control remaining” value does the source give for `Cc1c(Nc2ncnc3sc4c(c23)CCCC4)c(=O)n(-c2ccccc2)n1C` [CBK093912] here?
A: 97.3596%

Q: `CCN(CC)CCN(Cc1ccc2c(c1)OCO2)C(=O)Nc1ccc(C)cc1` [CBK159059] was tested. Which “% of control remaining” value did it give?
A: 116.778%

Q: How did the “% of control remaining” value turn out when `COC(=O)c1ccc2cccnc2c1O` [CBK017876] was run?
A: 109.825%

Q: Which “% of control remaining” value does the source give for `CCCC(NC(=O)C1C=CCN1S(C)(=O)=O)c1cccs1` (stereo not shown) [CBK282668] here?
A: 99.6684%

Q: For `COc1ccc(CCCCN(C(=O)C(N)Cc2ccccc2)c2cccc3ccccc23)cc1OC` (stereo not shown) [CBK001032T], which “% of control remaining” value is on record?
A: 71.6544%

Q: With `O=C(OCc1ccccc1)N1CCC(C2OCc3ccc(-c4ccc(Cl)c(Cl)c4)cc3O2)CC1` (stereo not shown) [CBK144646] as the compound, how does the “% of control remaining” value read?
A: 108.706%

Q: Which “% of control remaining” value does the source give for `Cc1ccc(-n2c(C)cc(C(=O)CSc3n[nH]c(=O)n3C3CC3)c2C)cc1C` [CBK296764] here?
A: 135.624%

Q: For `COc1cc2c(cc1OC)C1c3ccccc3N(Cn3nnc4ccccc43)C(=O)N1CC2` (stereo not shown) [CBK286193], which “% of control remaining” value is on record?
A: 124.389%

Q: With `Cc1ccc(C2(CN3CCC(NC(=O)CO)CC3)CCCC2)cc1` [CBK282628] as the compound, how does the “% of control remaining” value read?
A: 120.63%

Q: With `Cc1cccc(-c2nc(=S)c3c(n2CCCN(C)C)CCCC3)c1` [CBK268406] as the compound, how does the “% of control remaining” value read?
A: 116.716%

Q: `COc1ccccc1CN(C1CCNCC1)S(=O)(=O)c1c(Cl)cccc1Cl` [CBK160807T] was tested. Which “% of control remaining” value did it give?
A: 136.93%

Q: How did the “% of control remaining” value turn out when `O=C(CSc1nnc(-c2cccs2)n1-c1ccccc1)Nc1ccnc2ccccc12` [CBK267487] was run?
A: 117.624%

Q: For `CCN(CCO)c1ccc(Nc2cc(-c3ccc(C#N)cc3)ncn2)cc1` [CBK037764], which “% of control remaining” value is on record?
A: 138.109%

Q: For `COc1cc2c(cc1OC)C(C)N(C(=O)CCC(=O)O)CC2` (stereo not shown) [CBK269873], which “% of control remaining” value is on record?
A: 118.337%

Q: With `CCCCCc1nnc(Nc2nc(C)cc(C)n2)[nH]1` [CBK288155] as the compound, how does the “% of control remaining” value read?
A: 123.049%

Q: With `CN1CCN(c2cccc(-c3ccsc3)n2)CC1` [CBK036916] as the compound, how does the “% of control remaining” value read?
A: 118.546%

Q: With `O=C(CSc1nnc2[nH]c(=O)ccn12)NCc1ccccc1Cl` [CBK287684] as the compound, how does the “% of control remaining” value read?
A: 103.25%
